# Where “and” joins values, the source holds several entries; their conditions need not be identical. Equal entries are not always repeated. This list was built around the results that the source calls inconclusive (neither active nor inactive); the mix of calls is not that of the screen. Potencies beside an inconclusive call are fits to weak or partial responses and may not hold up. Calls of active or inactive are those of the source. Unless noted, the call rests on the fitted dose curve; in most records, active means well fitted inhibition curve with a large enough effect; inconclusive means small, poorly fitted or top-dose-only effect; inactive means no such curve, though single readings can be large or run the other way.
# Experiment: Confirmatory qHTS for activators (rescue) of SARS-CoV-2 Cytopathic Effect (CPE) (AID 1508606; calls by dose curve; further: nearly all actives have a fitted effect of over 70% in size)
# Conditions: Vero E6 SARS-CoV-2 CPE rescue, viability luminescence; series mostly up to 20 µM
# Potency means the concentration at half of the fitted maximal effect.
row,Compound,Potency
1,CC1(CN2CCC(n3c(=O)[nH]c4ccccc43)CC2)OCc2ccccc2-n2cccc21 (stereo not given),"inconclusive: 10 µM [activator, single point]"
2,Nc1ccc(C(=O)c2cc3c(ccc4ccccc43)[nH]2)cc1,"inconclusive: 20 µM [activator, partial curve, poor fit]"
3,C/C=C(/C)C(=O)O[C@H]1[C@@H]2[C@H](C)C(=O)O[C@@H]2C[C@@H](C)[C@@H]2C=CC(=O)[C@]21C,"inconclusive: 2.82 µM [activator, full curve]"
4,OC(CNc1ccccc1)Cn1c2ccc(Br)cc2c2cc(Br)ccc21 (stereo not given),"inconclusive: 3.55 µM [activator, single point]"
5,C[C@H](CCC(=O)O)C[C@H](C)C[C@H](C)C(=O)/C=C(\O)[C@H](C)C[C@H](C)C/C=C/[C@@H](C)[C@@H](O)[C@@H](C)[C@@H](O)C[C@@H]1CC[C@@](C)([C@H]2CC[C@@](C)([C@@H](C)O)O2)O1,"inconclusive: 4.92 µM [activator, single point]"

# Experiment: Primary qHTS for inhibitors of La Crosse Virus (LACV) - induced cell death in SH-SY5Y cells (AID 1508616)
# Conditions: SH-SY5Y LACV cytopathicity rescue, ATP luminescence, 6 d; series mostly up to 4.29 µM
# In short: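 Protection against LACV-induced cell death is scored in SH-SY5Y cells exposed to compounds and virus (0.01 MOI) for 6 days. Data normalized to virus-infected DMSO wells and virus-free DMSO wells.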
row,Compound,Potency
1,Nc1ccc([As](=O)(O)O)cc1,inactive
2,C[C@@H]1O[C@@H](O[C@H]2C[C@@H](O)[C@]3(CO)[C@H]4[C@H](O)C[C@]5(C)[C@@H](C6=CC(=O)OC6)CC[C@]5(O)[C@@H]4CC[C@]3(O)C2)[C@H](O)[C@H](O)[C@H]1O,"inconclusive: 1.26 µM [inhibitor, partial curve, poor fit] and inconclusive: 631 nM [inhibitor, full curve]"
3,C[C@H]1O[C@@H](O[C@H]2[C@@H](O)C[C@H](O[C@H]3[C@@H](O)C[C@H](O[C@H]4CC[C@@]5(C)[C@H](CC[C@@H]6[C@@H]5CC[C@]5(C)[C@@H](C7=CC(=O)OC7)CC[C@]65O)C4)O[C@@H]3C)O[C@@H]2C)C[C@H](O)[C@@H]1O,"inconclusive: 89.1 nM [inhibitor, full curve, poor fit]"
4,COP(=O)(OC)OC=C(Cl)Cl,inactive
5,C=C(C)[C@H]1Cc2c(ccc3c2O[C@@H]2COc4cc(OC)c(OC)cc4[C@@H]2C3=O)O1,"inconclusive: 631 nM [inhibitor, full curve, poor fit] and active: 316 nM"
